The nature of this experiment: qHTS Assay for Lipid Storage Modulators in Drosophila S3 Cells.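 For cell number change: cells counted by Cell Tracker Red CMTPX staining in the red channel.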 As to conditions: BODIPY lipid droplet fluorescence, 18-24 h; for cell number change: measured here: cell count max response, cells fed with added oleic acid. In a few lines: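 Drosophila S3 cells got compounds at several concentrations plus oleic acid (400 uM solution). Laser-scanning cytometry with 488 nm excitation read lipid droplets at 500-530 nm and cells at 575-640 nm. Percent activity was relative to 20 uM Triacsin C.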

[1] abbreviates: measured here: cell number channel AC50, cells fed with added oleic acid.
Where [2] appears, read: measured here: lipid fluorescence (Fed channel) AC50, cells fed with added oleic acid.

This is one part of the list. Shown are side measurements of this screen, not its main read-out; they come without a call. The list favours compounds with an active or inconclusive main result. The note in brackets gives the kind of curve behind each potency; many fits are weak. Where a SMILES comes first, the peptide text is derived from it. The star is where a group is joined. Cbz = O=C(OCc1ccccc1)*

The term AC50 denotes the midpoint of the concentration-response curve, whichever way the signal moves.

Regarding `CN(C)S(=O)(=O)c1cccc(-c2cn3cc(Cl)ccc3n2)c1`, the cell number change was 1.84%. Moreover, under setting [1], the AC50 is 0.461 µM [rising, single point]. In addition, the AC50 under setting [2] is 14.6 µM [rising, partial curve].
On to `CC(=O)N[C@@H](C)c1nc2ccccc2n1CCCN1CCN(c2nc(-c3ccc(C)cc3)cs2)CC1`, for which the cell number change is -32.3%. Also, the AC50 under setting [1] is 0.517 µM [falling, partial curve, poor fit].
On to `O=C1CCCc2nc(N3CCN(Cc4ccccc4)CC3)ncc21`, for which the cell number change was determined as 44.6%. The AC50 under setting [1] is 5.8 µM [rising, full curve]. The concentration at half-maximal activity (AC50) under setting [2] was 5.17 µM [rising, single point].
`O=C1NC(c2ccc(Cl)cc2)=COc2ccccc21`: the cell number change is 52.7%. Further, the AC50 under setting [1] is 3.66 µM [rising, full curve, poor fit]. Also, under setting [2], the concentration at half-maximal activity (AC50) was 4.61 µM [rising, full curve, poor fit].
In the case of `COc1ccc(C(c2nnnn2Cc2ccc(F)cc2)N2CCN(c3ccc(OC)cc3)CC2)cc1` (configuration not stated), the cell number change stood at 2.65%. Further, under setting [2], the AC50 was 2.06 µM [rising, full curve, poor fit].
Regarding `COCC1CCCCN1C(=O)c1ccc(OC2CCN(Cc3ccccn3)CC2)cc1` (configuration not stated), the cell number change is -21.8%. Besides, the AC50 under setting [2] is 7.31 µM [rising, partial curve].
As for `S=c1[nH]nc(-c2cccnc2)n1/N=C/c1ccc(Br)s1`, the cell number change is -12.2%.
Take `Cn1c(SCc2ccccc2F)nc2cccnc21`: the cell number change was found to be 60.1%.
Turning to `C=CCn1cccc(C(=O)Nc2cc(OC)c(OC)c(OC)c2)c1=O`, the cell number change was 1.69%. For the same compound, the AC50 under setting [1] is 6.51 µM [rising, partial curve, poor fit]. The AC50 under setting [2] was 6.51 µM [rising, partial curve].
For `Cc1nc2cccc(C)n2c(=O)c1Cl`, the cell number change came out at 29.2%. Moreover, under setting [1], the concentration at half-maximal activity (AC50) is 0.206 µM [rising, full curve, poor fit]. For the same compound, the AC50 under setting [2] was 1.3 µM [rising, partial curve].
Take `CCCCN(CC)CCCNC(=O)c1ccc(CS(=O)(=O)c2c(Cl)cccc2Cl)o1`: the cell number change came to 23.9%. The AC50 under setting [2] was 0.103 µM [rising, full curve, poor fit].
In the case of `O=C(COC(=O)Cn1[nH]c(=O)c2ccccc2c1=O)NNC(=O)c1ccc(Br)cc1`, the cell number change was -18.5%.
Turning to `O=C(CCC(=O)c1cccs1)NCc1ccc(F)cc1`, the cell number change was -2.32%. In addition, the AC50 under setting [2] is 20.6 µM [falling, partial curve].
On to `O=C(NCc1ccc2c(c1)CCO2)Nc1ccccc1`, for which the cell number change was -13.9%. Also, the AC50 under setting [1] was 0.116 µM [falling, full curve, poor fit].
On to `O=C(N[C@@H](Cc1ccccc1)C(=O)N[C@@H](Cc1ccccc1)C(=O)O)OCc1ccccc1` (Cbz-Phe-Phe-OH), for which the cell number change amounted to 20.1%. The AC50 under setting [2] is 9.2 µM [falling, partial curve, poor fit].
Take `COc1cccc(C2c3c(oc4ccccc4c3=O)C(=O)N2c2ccccn2)c1` (configuration not stated): the cell number change was 23%.
With `Cc1cccc(C(=O)N2CCCC(Nc3ccc(C)c(C)c3)C2)n1` (configuration not stated), the cell number change is -0.867%. In addition, the AC50 under setting [2] was 10.3 µM [rising, partial curve, poor fit].
Take `CCOC(=O)c1cccc(NC(=O)CCc2ccccc2)c1`: the AC50 under setting [1] was 0.00461 µM [rising, full curve, poor fit].
For the compound `COc1cccc(NC(=O)COC(=O)CCC(=O)c2cccs2)c1`, the cell number change is -11.4%. Under setting [2], the AC50 is 0.092 µM [falling, full curve, poor fit].
On to `O=C(COC(=O)C1CC1)Nc1ncc(Cl)cc1Cl`, for which the cell number change amounted to 41%. Besides, the AC50 under setting [1] is 16.4 µM [rising, single point].
As to `CCN(CC)S(=O)(=O)c1cccc(C(=O)Nc2nc3cc4c(cc3s2)OCCO4)c1`, the cell number change was 17%. In addition, under setting [1], the AC50 was 3.66 µM [rising, single point]. For the same compound, under setting [2], the AC50 is 1.84 µM [rising, full curve, poor fit].
As for `CCn1cc(S(=O)(=O)NC2CCCCC2)cn1`, the cell number change came out at 40.5%. The half-maximal activity concentration (AC50) under setting [1] is 23.1 µM [rising, partial curve].
Turning to `COC(=O)c1[nH]c2cc(OC)ccc2c1NC(=O)CN1CCC(C(N)=O)CC1`, the cell number change turned out to be 39.8%. Further, under setting [1], the AC50 was 2.59 µM [rising, single point].
As to `CCc1cc2cc(C)cc(C)c2nc1SCC(=O)N1CCN(C(=O)c2ccco2)CC1`, the cell number change was -3.41%. Under setting [2], the AC50 is 4.11 µM [rising, full curve].
Regarding `CCc1ccc(S(=O)(=O)NCCc2csc(-c3cccnc3)n2)s1`, the cell number change was 45.2%.
Regarding `O=C(O)c1cccc(S(=O)(=O)Nc2cc(Cl)ccc2Cl)c1`, the cell number change is -21.3%. Further, under setting [2], the AC50 is 20.6 µM [falling, single point].
With `Nc1nonc1-n1nnc(C(=O)N/N=C/c2ccccc2F)c1CN1CCc2ccccc21`, the cell number change was -1.91%. The AC50 under setting [2] is 29.1 µM [rising, single point].
Consider `O=C(NNC(=O)C12CC3CC(CC(C3)C1)C2)c1ccccc1[N+](=O)[O-]`, for which the cell number change is -4.2%. Under setting [2], the AC50 is 2.06 µM [rising, full curve, poor fit].
Consider `CCOc1ccc(CN(C)C(=O)CCc2ccc(S(=O)(=O)N3CCCCCC3)cc2)cc1`, for which the cell number change is 42.3%. In addition, the AC50 under setting [1] is 18.4 µM [rising, single point]. For the same compound, the AC50 under setting [2] was 14.6 µM [rising, partial curve, poor fit].
As for `O=C(N/N=C/c1cccnc1)c1cc2c(ccc3ccccc32)o1`, the cell number change stood at 95.9%. Under setting [1], the AC50 is 5.8 µM [rising, partial curve, poor fit]. Besides, under setting [2], the AC50 was 0.731 µM [rising, full curve].
As for `CCc1cc2c(SCC(=O)Nc3cc(C)on3)ncnc2s1`, the cell number change was 113%. In addition, the AC50 under setting [1] was 29.1 µM [rising, partial curve, poor fit]. For the same compound, the concentration at half-maximal activity (AC50) under setting [2] is 29.1 µM [rising, partial curve].
On to `CC(C)(C)N(Cc1ccccc1)C(=O)c1ccc2c(c1)OCCO2`, for which the cell number change came to 4.28%. Under setting [2], the AC50 was 29.1 µM [rising, single point].
Consider `CC1CCN(C(=O)C2CCN(S(=O)(=O)c3cc(Cl)ccc3Cl)CC2)CC1`, for which the cell number change was -0.557%. The AC50 under setting [2] is 4.11 µM [rising, single point].
In the case of `CC(=O)Nc1ccc(OCC(=O)c2ccc(C)cc2C)cc1`, the AC50 under setting [1] is 1.84 µM [rising, partial curve].
Regarding `C[C@]12CCC(=O)CC1CCC1C2CC[C@@]2(C)C1CC[C@@]21CCO1` (some centres not stated), the cell number change is -31.1%. Under setting [1], the AC50 was 29.1 µM [falling, single point].
Consider `O=C(CNS(=O)(=O)c1ccc2c(c1)OCCCO2)N1CCN(Cc2ccccc2)CC1`, for which the cell number change is 7.61%. Also, the AC50 under setting [2] was 0.103 µM [falling, full curve, poor fit].
With `Nc1ccc(Oc2c(Cl)cccc2Cl)nc1`, the cell number change is 26.6%. Under setting [2], the AC50 was 0.00517 µM [rising, full curve, poor fit].
`O=C(CNC(=O)c1cccs1)Nc1ncccc1O`: the cell number change was -25%. Besides, the AC50 under setting [1] is 0.103 µM [falling, full curve, poor fit]. Besides, under setting [2], the AC50 was 29.1 µM [rising, single point].
On to `CSc1nnc(Cc2sc(-c3ccccc3)nc2-c2ccccc2)o1`, for which the AC50 was 0.103 µM [rising, full curve, poor fit] under setting [1] and 7.31 µM [rising, partial curve] under setting [2].
Regarding `CCC(C)N1C(=O)CCC1C(=O)O` (configuration not stated), the cell number change was -30.8%. Besides, under setting [1], the AC50 was 0.731 µM [falling, full curve]. The AC50 under setting [2] was 20.6 µM [falling, partial curve].
As to `CC(C)C1C(=O)NC(=S)N1S(=O)(=O)c1ccc(C(C)(C)C)cc1` (configuration not stated), the cell number change amounted to 9.28%. Under setting [2], the AC50 was 29.1 µM [rising, single point].
`Cc1[nH]c(=S)[nH]c(=O)c1CCOc1ccccc1`: the cell number change was 22.6%. For the same compound, the AC50 under setting [2] was 10.3 µM [rising, single point].
`CCNc1cccc2c1C(=O)N(C)C2=O`: the cell number change turned out to be 1.42%. In addition, the AC50 under setting [2] is 1.03 µM [rising, full curve].
As for `COc1ccc(N2CCN(C(=O)/C(C#N)=C/c3ccccc3)CC2)cc1`, the cell number change was 6.07%.
The same measure, in the same setting: with `O=C(Cc1ccc(F)cc1)Nc1nnc(SCC(=O)NC2CCCC2)s1` the figure was 10.1%.
As for `COc1cc(/C=C/C(=O)O)cc(S(=O)(=O)Nc2ccccc2Cl)c1OC`, the cell number change was -50.3%. For the same compound, the AC50 under setting [1] was 10.3 µM [falling, partial curve]. The half-maximal activity concentration (AC50) under setting [2] was 13 µM [falling, partial curve, poor fit].
With `CCn1nnnc1SCC(=O)Nc1cccc(C)n1`, the cell number change was -1.67%. Moreover, the AC50 under setting [2] is 0.0058 µM [falling, full curve, poor fit].
Turning to `O=C(Nc1ccccc1N1CCCC1)c1cc(=O)[nH]c2ccccc12`, the cell number change turned out to be 100%. The AC50 under setting [1] was 25.9 µM [rising, single point].
`Cc1c(C(c2ccc(Br)cc2)c2c(C)n(C)n(-c3ccccc3)c2=O)c(=O)n(-c2ccccc2)n1C`: the cell number change was -8.39%. Further, under setting [2], the half-maximal activity concentration (AC50) is 3.26 µM [falling, single point].
In the case of `Cc1ccccc1OCC(=O)OC1CCN(C)CC1`, the cell number change is -14.5%. Moreover, the concentration at half-maximal activity (AC50) under setting [2] was 6.51 µM [falling, single point].
On to `Cc1ccccc1NC(=O)N1CCNC(=O)C1CC(=O)Nc1cc(Cl)ccc1Cl` (configuration not stated), for which the cell number change came to 7.94%. Moreover, the AC50 under setting [2] is 0.326 µM [rising, partial curve, poor fit].
`COc1ccccc1-n1c(SCC(N)=O)nc2c(c1=O)SCC2`: the cell number change is 27.2%. Also, under setting [2], the AC50 was 0.146 µM [rising, full curve].
Take `CCN1CCN(CCNC(=O)C2CCN(Cc3nc(-c4ccc(Cl)cc4)oc3C)CC2)CC1`: the cell number change is 2.98%. Also, under setting [2], the concentration at half-maximal activity (AC50) is 20.6 µM [falling, partial curve].
Consider `O=S(=O)(Nc1ccn(-c2ccccc2)n1)c1ccc(Br)cc1`, for which the cell number change was -14.9%. For the same compound, the AC50 under setting [2] was 2.06 µM [rising, full curve, poor fit].
For the compound `O=C(C1CC(=O)N(C2CCCCC2)C1)N1CCN(c2cccc(C(F)(F)F)c2)CC1` (configuration not stated), the cell number change is -6.35%. Under setting [2], the concentration at half-maximal activity (AC50) is 29.1 µM [falling, single point].
Take `COc1ccccc1OCc1nc(C#N)c(N2CC(C)CC(C)C2)o1` (configuration not stated): the cell number change is -1.32%.
Take `Cc1ccc(NS(=O)(=O)c2cc(C(=O)NCCCN(C)C)ccc2Cl)cc1Cl`: under setting [2], the AC50 was 0.103 µM [falling, full curve, poor fit].
As to `Cc1ccccc1N/C=C/C(=C(C#N)C#N)N(C)C`, the cell number change was determined as 11.1%. The AC50 under setting [1] was 0.731 µM [falling, full curve, poor fit].

(Values after PubChem BioAssay AID2685 (National Center for Advancing Translational Sciences (NCATS), 2010).)
